Data as given in PMC11994801.
Read-outs that look alike come from different tables or passages of the source. These are yes or no findings as the source states them, for the method shown. In cells and extracts the contact can be indirect. Some results given as binding are weak or reduced against the parent protein; the word gives no strength. For some of these results: Where a sequence is shown, tags or fusion partners need not be part of it. One block for each molecule: values may come before it.

By UniProt entry, the sequences of proteins in these tests, tags left out.
UniProt Q14145: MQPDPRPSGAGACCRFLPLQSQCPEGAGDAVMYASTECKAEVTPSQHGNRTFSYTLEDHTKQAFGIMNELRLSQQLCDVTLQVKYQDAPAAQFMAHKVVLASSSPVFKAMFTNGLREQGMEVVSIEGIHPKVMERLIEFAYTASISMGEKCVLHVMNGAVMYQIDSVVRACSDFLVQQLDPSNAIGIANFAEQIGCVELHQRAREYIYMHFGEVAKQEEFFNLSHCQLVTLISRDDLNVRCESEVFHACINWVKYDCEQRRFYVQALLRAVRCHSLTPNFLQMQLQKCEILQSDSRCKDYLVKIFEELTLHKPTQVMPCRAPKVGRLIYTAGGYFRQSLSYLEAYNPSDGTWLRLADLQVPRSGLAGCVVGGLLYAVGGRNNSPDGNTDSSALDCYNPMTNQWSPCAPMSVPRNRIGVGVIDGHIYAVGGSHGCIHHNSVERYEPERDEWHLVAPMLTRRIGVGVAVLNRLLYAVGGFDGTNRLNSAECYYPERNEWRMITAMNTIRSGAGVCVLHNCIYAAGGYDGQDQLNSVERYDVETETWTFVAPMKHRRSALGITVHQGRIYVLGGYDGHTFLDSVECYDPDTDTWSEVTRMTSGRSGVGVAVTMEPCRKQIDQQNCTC
UniProt O94972: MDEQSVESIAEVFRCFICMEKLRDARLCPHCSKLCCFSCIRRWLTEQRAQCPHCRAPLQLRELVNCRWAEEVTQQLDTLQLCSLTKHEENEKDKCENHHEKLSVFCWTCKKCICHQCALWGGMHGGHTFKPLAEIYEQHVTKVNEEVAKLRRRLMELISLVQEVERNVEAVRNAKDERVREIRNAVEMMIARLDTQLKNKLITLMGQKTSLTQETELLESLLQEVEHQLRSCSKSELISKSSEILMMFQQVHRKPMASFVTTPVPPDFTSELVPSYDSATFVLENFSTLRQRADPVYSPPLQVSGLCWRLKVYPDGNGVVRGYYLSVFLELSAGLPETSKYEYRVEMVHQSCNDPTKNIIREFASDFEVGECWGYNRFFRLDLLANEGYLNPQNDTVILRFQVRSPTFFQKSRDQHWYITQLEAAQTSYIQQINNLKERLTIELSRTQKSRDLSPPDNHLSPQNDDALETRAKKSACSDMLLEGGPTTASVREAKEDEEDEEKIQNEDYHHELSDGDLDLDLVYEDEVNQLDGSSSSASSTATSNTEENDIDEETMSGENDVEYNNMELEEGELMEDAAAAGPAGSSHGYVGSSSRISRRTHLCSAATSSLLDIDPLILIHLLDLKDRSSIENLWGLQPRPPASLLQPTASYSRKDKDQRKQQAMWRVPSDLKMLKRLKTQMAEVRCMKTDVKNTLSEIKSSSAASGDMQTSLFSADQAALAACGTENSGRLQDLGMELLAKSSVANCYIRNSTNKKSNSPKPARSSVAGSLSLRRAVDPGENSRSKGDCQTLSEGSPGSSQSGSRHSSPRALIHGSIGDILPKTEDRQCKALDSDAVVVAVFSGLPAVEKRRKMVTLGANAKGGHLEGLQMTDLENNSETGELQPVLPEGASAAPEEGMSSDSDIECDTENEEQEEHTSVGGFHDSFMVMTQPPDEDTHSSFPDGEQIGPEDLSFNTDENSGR

Experiments:
[1] = biological target: HA-KEAP1 (Kelch-like ECH-associated protein 1) (UniProt Q14145); test: co-IP; exogenous co-IP from HEK-293T cells co-transfected with tagged plasmids; protein A/G Immunoprecipitation Kit; IP by tag antibodies (anti-Flag, anti-HA as indicated), detection by WB; in Fig. 5G with or without Myc-TMEM160 overexpression
[2] = biological target: T1, Myc-TMEM160 (transmembrane protein 160) (UniProt Q9NX00); test: as above
T1 sequence: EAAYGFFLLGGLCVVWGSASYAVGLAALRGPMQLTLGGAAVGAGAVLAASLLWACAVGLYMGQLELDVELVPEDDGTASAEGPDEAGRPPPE

[3] = biological target: KEAP1, endogenous (human (endogenous in BGC-823 and HGC-27)) (UniProt Q14145); test: co-IP; endogenous co-IP; BGC-823 and HGC-27 lysates incubated with magnetic beads conjugated to anti-TMEM160, anti-KEAP1 or anti-TRIM37 polyclonal antibodies at 4°C for 48 h; WB
[4] = biological target: T2, TMEM160, endogenous (human (endogenous in BGC-823 and HGC-27)) (UniProt Q9NX00); test: as above
T2 sequence: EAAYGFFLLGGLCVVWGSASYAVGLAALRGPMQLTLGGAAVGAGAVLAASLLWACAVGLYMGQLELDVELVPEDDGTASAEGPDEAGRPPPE

[5] = biological target: Flag-KEAP1 WT (UniProt Q14145); test: co-IP; exogenous co-IP from HEK-293T cells co-transfected with tagged plasmids; protein A/G Immunoprecipitation Kit; IP by tag antibodies (anti-Flag, anti-HA as indicated), detection by WB; in Fig. 5G with or without Myc-TMEM160 overexpression
[6] = biological target: HA-KEAP1 (Kelch-like ECH-associated protein 1) (UniProt Q14145); test: as above; remark: listed apart in the source
[7] = biological target: KEAP1, endogenous (human (endogenous in BGC-823 and HGC-27)) (UniProt Q14145); test: co-IP; endogenous co-IP; BGC-823 and HGC-27 lysates incubated with magnetic beads conjugated to anti-TMEM160, anti-KEAP1 or anti-TRIM37 polyclonal antibodies at 4°C for 48 h; WB; remark: listed apart in the source

binding [1]: binds
binding [2]: binds
Molecule: Flag-TRIM37 (from UniProt O94972 1-964)

binding [3]: binds
binding [4]: binds
Molecule: TRIM37, endogenous (from UniProt O94972 1-964)

binding [5]: binds
binding [6]: binds
B1: Myc-TMEM160 (transmembrane protein 160) (protein, UniProt Q9NX00 97-188)
chain: EAAYGFFLLGGLCVVWGSASYAVGLAALRGPMQLTLGGAAVGAGAVLAASLLWACAVGLYMGQLELDVELVPEDDGTASAEGPDEAGRPPPE

binding [7]: binds
B2: TMEM160, endogenous (protein, UniProt Q9NX00 97-188)
chain: EAAYGFFLLGGLCVVWGSASYAVGLAALRGPMQLTLGGAAVGAGAVLAASLLWACAVGLYMGQLELDVELVPEDDGTASAEGPDEAGRPPPE
